The text below walks through data of paper PMC8113490, “Androgen signaling uses a writer and a reader of ADP-ribosylation to regulate protein complex assembly” (Nature Communications, 2021).

Protein sequences, listed by entry. Tags and fused reporters are not part of them.
UniProt P09874: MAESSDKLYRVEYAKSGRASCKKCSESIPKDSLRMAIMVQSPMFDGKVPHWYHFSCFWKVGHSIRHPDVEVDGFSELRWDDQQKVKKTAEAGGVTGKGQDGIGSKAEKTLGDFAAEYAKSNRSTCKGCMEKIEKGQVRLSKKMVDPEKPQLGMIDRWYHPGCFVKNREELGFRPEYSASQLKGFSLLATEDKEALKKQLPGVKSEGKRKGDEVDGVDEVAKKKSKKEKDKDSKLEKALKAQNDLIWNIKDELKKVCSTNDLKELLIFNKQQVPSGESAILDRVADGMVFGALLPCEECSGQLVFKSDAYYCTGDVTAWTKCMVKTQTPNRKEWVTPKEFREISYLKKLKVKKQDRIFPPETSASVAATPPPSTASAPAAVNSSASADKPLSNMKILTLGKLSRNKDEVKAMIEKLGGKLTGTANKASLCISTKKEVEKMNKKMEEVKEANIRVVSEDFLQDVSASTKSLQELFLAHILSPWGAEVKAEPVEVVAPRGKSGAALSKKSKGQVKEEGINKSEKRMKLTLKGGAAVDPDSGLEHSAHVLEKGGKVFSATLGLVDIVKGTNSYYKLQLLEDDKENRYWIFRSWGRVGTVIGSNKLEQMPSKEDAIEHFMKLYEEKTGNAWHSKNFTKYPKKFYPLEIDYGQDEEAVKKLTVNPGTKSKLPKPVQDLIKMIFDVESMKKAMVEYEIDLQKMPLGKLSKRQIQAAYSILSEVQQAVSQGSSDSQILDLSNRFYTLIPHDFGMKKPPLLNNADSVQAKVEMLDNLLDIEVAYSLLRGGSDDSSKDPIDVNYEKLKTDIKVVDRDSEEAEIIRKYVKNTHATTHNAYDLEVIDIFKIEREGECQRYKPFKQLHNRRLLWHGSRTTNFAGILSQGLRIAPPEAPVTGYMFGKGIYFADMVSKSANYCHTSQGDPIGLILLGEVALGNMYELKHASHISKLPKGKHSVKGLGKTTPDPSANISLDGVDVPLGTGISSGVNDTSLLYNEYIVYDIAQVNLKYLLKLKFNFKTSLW

Read-outs that look alike come from different tables or passages of the source. No constants are given. Whether binding was seen depends on the method and setting. Binding seen in cells or lysates may run through a third protein. Some binding calls cover weakened binding; strength is not graded here. Where a sequence is shown, tags or fusion partners need not be part of it.

Assay [1] concerns the target T1, GST-Af1521 (macrodomain protein Af1521 from Archaeoglobus fulgidus) (Archaeoglobus fulgidus) (UniProt O28751).
T1 sequence: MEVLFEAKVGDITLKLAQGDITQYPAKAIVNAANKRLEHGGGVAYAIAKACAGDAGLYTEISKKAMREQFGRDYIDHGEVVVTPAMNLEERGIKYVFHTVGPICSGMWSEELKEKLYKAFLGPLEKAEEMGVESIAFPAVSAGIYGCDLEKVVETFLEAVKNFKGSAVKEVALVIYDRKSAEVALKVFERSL
The experiment in a line: pull-down; GST-Af1521 immobilised on glutathione beads (10 μg/10 μl beads), extracts of PC3-AR, PC3-AR-HA-Parp7 or VCaP cells, untreated or treated with R1881 (also other ligands, CHX, Olaparib, shParp7); 4 h, 4 °C; 20 mM Tris-HCl pH 7.5, 50 mM NaCl, 0.5% Triton X-100; immunoblot; only the target purified.

The target in assay [2] is T1, GST-Af1521 (macrodomain protein Af1521 from Archaeoglobus fulgidus) (Archaeoglobus fulgidus). Described as above. The source holds these as a separate data set.

For the molecule “Parp1 (from UniProt P09874 1-1014) (enzyme)”, the binding entry in assay [1] is “binds”.

B1: HA-Parp7, automodified in cells (enzyme, UniProt Q7Z3E1 1-657)
chain: MEMETTEPEPDCVVQPPSPPDDFSCQMRLSEKITPLKTCFKKKDQKRLGTGTLRSLRPILNTLLESGSLDGVFRSRNQSTDENSLHEPMMKKAMEINSSCPPAENNMSVLIPDRTNVGDQIPEAHPSTEAPERVVPIQDHSFPSETLSGTVADSTPAHFQTDLLHPVSSDVPTSPDCLDKVIDYVPGIFQENSFTIQYILDTSDKLSTELFQDKSEEASLDLVFELVNQLQYHTHQENGIEICMDFLQGTCIYGRDCLKHHTVLPYHWQIKRTTTQKWQSVFNDSQEHLERFYCNPENDRMRMKYGGQEFWADLNAMNVYETTEFDQLRRLSTPPSSNVNSIYHTVWKFFCRDHFGWREYPESVIRLIEEANSRGLKEVRFMMWNNHYILHNSFFRREIKRRPLFRSCFILLPYLQTLGGVPTQAPPPLEATSSSQIICPDGVTSANFYPETWVYMHPSQDFIQVPVSAEDKSYRIIYNLFHKTVPEFKYRILQILRVQNQFLWEKYKRKKEYMNRKMFGRDRIINERHLFHGTSQDVVDGICKHNFDPRVCGKHATMFGQGSYFAKKASYSHNFSKKSSKGVHFMFLAKVLTGRYTMGSHGMRRPPPVNPGSVTSDLYDSCVDNFFEPQIFVIFNDDQSYPYFVIQYEEVSNTVSI
modifications: auto-ADP-ribosylated in cells (sites not mapped for this sample)
Turning to B1, in assay [2], the binding entry was “binds”.
